In assay [1] the target is EWS RNA-binding protein 1 (EWSR1) (human (endogenous in HCC cell lines)) (UniProt Q01844). Kind of assay: co-IP; endogenous proteins; 1 x 10^7 HCC cells in 1 mL IP lysis buffer, sonicated; supernatant with anti-human EWSR1 (CST 11910, 5 ug) or rabbit IgG for 4 h and beads for 2 h; western blot; also in cells with LINC01116 overexpression or knockdown (binding reduced or enhanced). A general note: In western blotting, separated proteins are transferred to a membrane and probed.

Protein sequences, listed by entry. Tags and fused reporters are not part of them.
UniProt Q01844: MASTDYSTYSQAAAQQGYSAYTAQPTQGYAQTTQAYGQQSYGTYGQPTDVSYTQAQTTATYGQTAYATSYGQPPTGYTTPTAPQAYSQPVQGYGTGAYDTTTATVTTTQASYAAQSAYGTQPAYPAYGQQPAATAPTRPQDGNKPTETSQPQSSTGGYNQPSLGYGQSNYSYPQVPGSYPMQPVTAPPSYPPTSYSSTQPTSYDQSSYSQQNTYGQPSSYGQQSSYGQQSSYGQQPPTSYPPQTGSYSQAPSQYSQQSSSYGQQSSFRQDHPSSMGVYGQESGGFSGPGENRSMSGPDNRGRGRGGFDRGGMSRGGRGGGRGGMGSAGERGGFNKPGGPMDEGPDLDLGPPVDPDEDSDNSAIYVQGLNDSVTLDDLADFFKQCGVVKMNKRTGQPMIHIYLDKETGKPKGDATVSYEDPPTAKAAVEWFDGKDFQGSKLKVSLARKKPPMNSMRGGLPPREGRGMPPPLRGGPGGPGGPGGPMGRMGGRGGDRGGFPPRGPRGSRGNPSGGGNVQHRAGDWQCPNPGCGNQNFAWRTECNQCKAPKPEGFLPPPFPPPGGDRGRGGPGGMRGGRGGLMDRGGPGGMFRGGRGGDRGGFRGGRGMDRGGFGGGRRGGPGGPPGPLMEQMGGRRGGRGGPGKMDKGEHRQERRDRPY
UniProt Q9NS91: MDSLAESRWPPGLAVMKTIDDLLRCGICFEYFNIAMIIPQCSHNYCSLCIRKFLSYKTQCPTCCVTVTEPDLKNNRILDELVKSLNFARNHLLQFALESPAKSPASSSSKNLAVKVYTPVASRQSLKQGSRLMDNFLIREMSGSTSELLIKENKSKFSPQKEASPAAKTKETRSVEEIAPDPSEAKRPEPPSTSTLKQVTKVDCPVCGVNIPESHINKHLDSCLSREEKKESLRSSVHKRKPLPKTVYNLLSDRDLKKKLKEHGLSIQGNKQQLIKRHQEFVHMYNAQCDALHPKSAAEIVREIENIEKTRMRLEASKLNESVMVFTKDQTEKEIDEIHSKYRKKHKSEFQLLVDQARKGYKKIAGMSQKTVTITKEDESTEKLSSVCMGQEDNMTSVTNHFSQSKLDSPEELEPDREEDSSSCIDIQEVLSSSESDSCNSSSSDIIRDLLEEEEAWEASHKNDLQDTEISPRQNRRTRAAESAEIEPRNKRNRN

In assay [2] the target is FLAG-tagged EWSR1(1-656) (UniProt Q01844). Kind of assay: co-IP; 293T cells transfected with vectors for FLAG-tagged EWSR1 and its truncations; western blot.

Results are given in words; binding and its absence hold for the method and conditions named. In cells and extracts the contact can be indirect. Some entries that bind do so weakly or less than the wild type.

Take “RAD18 E3 Ubiquitin Protein Ligase (RAD18) (from UniProt Q9NS91 1-495)”: the binding result in assay [1] was “binds”. Regarding “RAD18 in 293T cells (from UniProt Q9NS91 1-495)”, the binding result in assay [2] was “binds”.

For the origin of these results see article PMC11151013.
